Measured values reported in patent US10874709B2 (CAREGEN CO., LTD., priority 2017, dated 2020).

Assay: general procedure: Fmoc solid-phase peptide synthesis; CTL resin; HoBt, Bop, DIEA
Conditions: whole synthesis

Ac-YKSKKGGWTH gave a crude mass of 1.15 g and a crude yield (scale of the general procedure 700 mg of resin) of 89.5%.
